Data published in PubChem BioAssay AID624297 (National Center for Advancing Translational Sciences (NCATS), 2012).
The campaign covered roughly 340,000 compounds. About 6,200 (1.8%) were called active. The inconclusive results got no clear call from the source; some entries with a clear call stand among them for comparison. Calls come from the whole dose curve; as a rule, active = well fitted activation curve with a large enough effect; inconclusive = small, poorly fitted or top-dose-only effect; inactive = no such curve, though single readings can be large or run the other way. Potencies beside an inconclusive call are fits to weak or partial responses and may not hold up.

Assay: A quantitative high throughput screen for small molecules that induce DNA re-replication in SW480 colon adenocarcinoma cells. For re-replication activation: % of control where 0% means no effect. Note: nearly all actives have a fitted effect of over 55% in size.
Settings: Hoechst DNA content imaging, 48 h; re-replication activation: at 46.1 µM (top of the series) unless noted
Procedure, shortened: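 Per well, 250 cells were exposed to pinned compound for 48 hr. Nuclear DNA was visualised with Hoechst (40 min, 37 C) and total object intensity recorded by fluorescence scanning.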
Potency is the fitted concentration of half-maximal effect.

SMILES	Potency	re-replication activation
O=C1CC(c2cccc([N+](=O)[O-])c2)c2cc3c(cc2N1)CCC3 (stereo not given)	inconclusive: 29.1 µM [activator, single point]	–
C=CCNc1cnn(-c2ccccc2)c(=O)c1Cl	inconclusive: 6.51 µM [activator, single point]	–
CCOC(=O)c1nn(-c2ccc(Cl)cc2)c2nnc(Cc3ccc(C)cc3)c(=O)n12	inactive	–
COc1cc(C(=O)NCC2CCCCC2)cc(OC)c1OC	inconclusive: 23.1 µM [activator, single point]	–
CCOc1ccccc1OC(=O)c1ccco1	inconclusive: 6.51 µM [activator, single point]	–
Cc1ccc(N(C(C)C(=O)N2CCN(Cc3ccccc3)CC2)S(C)(=O)=O)cc1 (stereo not given)	inconclusive: 2.91 µM [activator, partial curve, poor fit]	–
O=C(CNC(=O)c1cccs1)N=Nc1c(O)[nH]c2ccc(Br)cc12	inactive	–
CSCC[C@H](NS(=O)(=O)c1ccc(C)cc1)C(=O)N1CCC(C(=O)N[C@H](C(=O)O)c2ccccc2)CC1	inconclusive: 32.6 µM [activator, partial curve, poor fit]	–
CC(=O)Nc1ccc(-c2csc(NC(=O)Nc3ccccc3)n2)cc1	inconclusive: 4.11 µM [activator, partial curve, poor fit]	–
Cc1ccc(S(=O)(=O)c2nc(S(C)(=O)=O)sc2N2CCCCC2C)cc1 (stereo not given)	inconclusive: 20.6 µM [activator, single point]	–
Cc1cc(C)cc(N2C(=O)CC(Sc3ncn[nH]3)C2=O)c1 (stereo not given)	inconclusive: 23.1 µM [activator, single point]	–
CCN(C(=O)CSc1nc(N)cc(=O)[nH]1)c1c(N)n(Cc2ccccc2)c(=O)[nH]c1=O	inactive	–
O=C(Nc1ccc2oc(=O)ccc2c1)c1ccccc1[N+](=O)[O-]	–	inactive: -18.9% [at 1.84 µM]
O=c1c(-c2ccccc2)n[nH]c2ccccc12	inactive	–
N#C/C(=C/c1ccc(O)c(O)c1)c1nc2ccccc2[nH]1	inconclusive: 29.1 µM [activator, single point]	–
COc1cc2c(cc1OC)C(c1cccs1)N(C(=O)c1ccncc1)CC2 (stereo not given)	inconclusive: 29.1 µM [activator, single point]	–
O=C(COC(=O)c1ccccc1Cc1ccccc1)Nc1ccc(SC(F)F)cc1	inconclusive: 29.1 µM [activator, single point]	–
COc1ccc(NC(=O)CCCC2CCCCC2)cc1S(=O)(=O)N1CCCCC1	inconclusive: 0.0046 µM [activator, full curve, poor fit]	–
Cc1ccc(NC2Sc3ccccc3NC2=O)cc1Cl (stereo not given)	inconclusive: 20.6 µM [activator, partial curve, poor fit]	–
CCn1c(SCC(=O)N2CCCCC2C)nc2ccsc2c1=O (stereo not given)	inactive	–
N=C(N)SCP(=O)(c1ccccc1)c1ccccc1	inconclusive: 20.6 µM [activator, partial curve, poor fit]	–
O=C(N/N=C/c1ccccc1)c1ccc(NC(=O)c2ccc(F)cc2)cc1	inactive	–
Cc1sc2ncnc(OCC(=O)N3CCN(S(=O)(=O)c4ccc(Cl)cc4)CC3)c2c1C	inactive	–

3 structures out of the list, ordered by molecular weight, low to high:
SMILES	Potency	re-replication activation
COc1cc(C(=O)NCC2CCCCC2)cc(OC)c1OC	inconclusive: 23.1 µM [activator, single point]	–
COc1ccc(NC(=O)CCCC2CCCCC2)cc1S(=O)(=O)N1CCCCC1	inconclusive: 0.0046 µM [activator, full curve, poor fit]	–
Cc1sc2ncnc(OCC(=O)N3CCN(S(=O)(=O)c4ccc(Cl)cc4)CC3)c2c1C	inactive	–

Next records

SMILES	Potency	re-replication activation
CCCNC(=O)NC(=O)c1cnccc1C(F)(F)F	inconclusive: 2.59 µM [activator, partial curve, poor fit]	–
C=CCNC(=S)NNC(=O)c1cccn(Cc2ccc(Cl)cc2Cl)c1=O	inactive	–
COc1ccc(CCNC(=O)CCc2ccccc2)cc1OC	inconclusive: 29.1 µM [activator, single point]	–
CCOC(=O)/C=c1/s/c(=C/c2ccc3cc(OC)ccc3c2)c(=O)n1CC(=O)NCC1CCCO1 (stereo not given)	active: 3.66 µM	–
Cc1ccc(NC(=S)c2ccncc2)c(C)c1	inconclusive: 23.1 µM [activator, single point]	–
O=C1Oc2ccccc2C(=O)/C1=C/c1ccccc1O	inconclusive: 18.4 µM [activator, single point]	–
O=C(NCCN1CCCCCC1)C1CCN(S(=O)(=O)N2CCOCC2)CC1	inactive	–
COc1ccc(CCNC(=O)Cn2c(=O)n(Cc3ccco3)c(=O)c3ccc(Cl)cc32)cc1OC	inconclusive: 16.4 µM [activator, single point]	–
CSc1ccccc1NC(=O)c1ccccn1	inconclusive: 29.1 µM [activator, single point]	–
CCc1ccc(OCC(=O)Nc2ccc(S(=O)(=O)N3CCOCC3)cc2)cc1	inactive	–
CCCSc1nnc(NC(=O)c2sc3nc(-c4cccs4)ccc3c2N)s1	inactive	–
S=C(Nc1ccc(N2CCOCC2)cc1)Nc1ccc2snnc2c1	inactive	–
CC(=O)C1=C(C)N(Cc2ccccc2)C(=O)N[C@H]1c1cccc(F)c1	inconclusive: 29.1 µM [activator, partial curve, poor fit]	–
Cc1cc(C)c2c(=O)n(CC(=O)NCCCN3CCN(c4ccccc4F)CC3)sc2n1	inconclusive: 23.1 µM [activator, partial curve, poor fit]	–
COc1ccc(COCC(O)CN2CCC(CN3C(=O)c4cccc5cccc(c45)C3=O)CC2)cc1OC (stereo not given)	inactive	–
CCc1cccc(NC(=O)CCS(=O)(=O)c2ccc(Br)cc2)c1	inconclusive: 20.6 µM [activator, partial curve, poor fit]	–
CCOc1ccc(NC(=O)CSc2ccc(-c3ccco3)nn2)cc1	inactive	–
CCOc1ccc(NC(=O)c2ccccc2NC(=O)CNC2CCCC(C)C2C)cc1 (stereo not given)	inconclusive: 32.6 µM [activator, partial curve, poor fit]	–
O=C(/C=C/c1ccc(Cl)cc1Cl)c1ccc[nH]1	inconclusive: 29.1 µM [activator, single point]	–
CCc1nnc(NC(=O)CCC(=O)N2CCN(CCOc3ccc(C)cc3)CC2)s1	–	inactive: -6.21% [at 9.22 µM]
CCc1ccccc1NC(=O)CN1CCN(C(=O)CNC(=O)c2ccc(-c3ccccc3)cc2)CC1	inactive	–
Cc1ccc(OCCn2cc(/C=C3\C(=O)NN(c4ccccc4)C3=O)c3ccccc32)cc1	inactive	–
